# Measured values: the odorant receptor screen of Mainland et al. (2015)
# Several values for one entry are separate records, joined by “and”; a condition that tells them apart may be missing. Equal values may be shown once. This is one part of the list. Single wells; the ratio to wells without odorant was worked out here, and repeats agree poorly.
# Tested on: OR2A7 clone 1077
# Assay: odorant receptor activation (CRE luciferase / Renilla) (fold of no-odor wells); higher = more activation
# Conditions: 100 µM
row,SMILES,odorant receptor activation
1,C=CCc1ccc(OC)c(OC)c1 [eugenol methyl ether],1.35
2,CCCCCCCOC(C)=O [heptyl acetate],0.948
3,O=C1CCCCCCCCCCCCCCO1 [pentadecalactone],0.733
4,CCCCCCCCCCC=O [undecanal],0.858
5,O=CCc1ccccc1 [phenyl acetaldehyde],1.21
6,CCCCCCCC=O [octyl aldehyde],0.817
7,CC(C)CC(=O)O [isovaleric acid],0.938

# Tested on: OR2A7 clone 1543
# Assay: as above
# Conditions: 100 µM
row,SMILES,odorant receptor activation
1,CC(C)C(=O)O [isobutyric acid],1.02 and 0.712
2,CC12CCC(CC1)C(C)(C)O2 [cineole],0.856
3,C=CC(C)(O)CCC=C(C)C (stereo unspecified) [linalool],0.87
4,c1cnccn1 [pyrazine],0.805
5,CC(=O)C(C)=O [diacetyl],1.06
6,CC/C=C\CCO [cis-3-hexen-1-ol],0.691
7,CC1=CCC(C(C)(C)O)CC1 (stereo unspecified) [terpineol],0.868
8,CCCCCCCCOC(C)=O [octyl acetate],0.862
9,CCCCO [1-butanol],1.07
10,O=C1CCCCCCCCCCCC(=O)OCCO1 [ethylene brassylate],1.22
11,"CC1CCC(C(C)C)C(O)C1 (single isomer, unassigned; (-)) [(-)-menthol]",2.9
12,COC(=O)c1ccccc1O [methyl salicylate],0.874
13,"CC1CCC(C(C)C)C(O)C1 (single isomer, unassigned; (+)) [(+)-menthol]",0.932
14,C=CCc1ccc(O)c(OC)c1 [eugenol],1.16
15,C=C(C)C1CC=C(C)C(=O)C1 (stereo unspecified) [r-carvone],0.804
16,CC(=O)OCC=C(C)CCC=C(C)C [geranyl acetate],1.27 and 1.19
17,CCCCCCOC(=O)CCC [hexyl butyrate],0.977 and 0.743
18,CC(C)CCC(=O)O [4-methylvaleric acid],0.964
19,c1ccc(Oc2ccccc2)cc1 [diphenyl ether],1.34
20,COc1cc(C=O)ccc1O [vanillin],0.893
21,CC(=O)OC(C)(C)C1CC=C(C)CC1 (stereo unspecified) [terpinyl acetate],1.06
22,C=CCc1ccc(OC)c(OC)c1 [eugenol methyl ether],1.37
23,CCCCCCCOC(C)=O [heptyl acetate],0.937 and 0.921
24,O=C1CCCCCCCCCCCCCCO1 [pentadecalactone],0.707
25,CCCCCCCCCCC=O [undecanal],0.767
26,O=CCc1ccccc1 [phenyl acetaldehyde],1.07
27,CCCCCCCC=O [octyl aldehyde],0.798
28,CC(C)CC(=O)O [isovaleric acid],0.83

# Tested on: OR2AE1 I77T clone 1079
# Assay: as above
# Conditions: 100 µM
row,SMILES,odorant receptor activation
1,CC(C)C(=O)O [isobutyric acid],1.6
2,CC12CCC(CC1)C(C)(C)O2 [cineole],0.879
3,C=CC(C)(O)CCC=C(C)C (stereo unspecified) [linalool],0.986
4,c1cnccn1 [pyrazine],1.17
5,CC(=O)C(C)=O [diacetyl],1.04
6,CC/C=C\CCO [cis-3-hexen-1-ol],0.84
7,CC1=CCC(C(C)(C)O)CC1 (stereo unspecified) [terpineol],1.09
8,CCCCCCCCOC(C)=O [octyl acetate],1.01
9,CCCCO [1-butanol],22.1
10,O=C1CCCCCCCCCCCC(=O)OCCO1 [ethylene brassylate],1.93
11,"CC1CCC(C(C)C)C(O)C1 (single isomer, unassigned; (-)) [(-)-menthol]",18.1
12,COC(=O)c1ccccc1O [methyl salicylate],1.05
13,"CC1CCC(C(C)C)C(O)C1 (single isomer, unassigned; (+)) [(+)-menthol]",22.3
14,C=CCc1ccc(O)c(OC)c1 [eugenol],1.13 and 1.49
15,C=C(C)C1CC=C(C)C(=O)C1 (stereo unspecified) [r-carvone],0.957
16,CC(=O)OCC=C(C)CCC=C(C)C [geranyl acetate],1.54
17,CCCCCCOC(=O)CCC [hexyl butyrate],0.708
18,CC(C)CCC(=O)O [4-methylvaleric acid],12.3
19,c1ccc(Oc2ccccc2)cc1 [diphenyl ether],0.927
20,COc1cc(C=O)ccc1O [vanillin],0.79
21,CC(=O)OC(C)(C)C1CC=C(C)CC1 (stereo unspecified) [terpinyl acetate],1.13
22,C=CCc1ccc(OC)c(OC)c1 [eugenol methyl ether],1.73
23,CCCCCCCOC(C)=O [heptyl acetate],1.04
24,O=C1CCCCCCCCCCCCCCO1 [pentadecalactone],0.888
25,CCCCCCCCCCC=O [undecanal],0.924
26,O=CCc1ccccc1 [phenyl acetaldehyde],1.21
27,CCCCCCCC=O [octyl aldehyde],1.06
28,CC(C)CC(=O)O [isovaleric acid],1.4

# Tested on: OR2AG1 clone 1112
# Assay: as above
# Conditions: 100 µM
row,SMILES,odorant receptor activation
1,CC(C)C(=O)O [isobutyric acid],1.38
2,CC12CCC(CC1)C(C)(C)O2 [cineole],0.75
3,C=CC(C)(O)CCC=C(C)C (stereo unspecified) [linalool],0.978
4,c1cnccn1 [pyrazine],0.912
5,CC(=O)C(C)=O [diacetyl],1.06
6,CC/C=C\CCO [cis-3-hexen-1-ol],0.793
7,CC1=CCC(C(C)(C)O)CC1 (stereo unspecified) [terpineol],1.03
8,CCCCCCCCOC(C)=O [octyl acetate],1.19
9,CCCCO [1-butanol],9.85
10,O=C1CCCCCCCCCCCC(=O)OCCO1 [ethylene brassylate],1.47
11,"CC1CCC(C(C)C)C(O)C1 (single isomer, unassigned; (-)) [(-)-menthol]",8.64
12,COC(=O)c1ccccc1O [methyl salicylate],0.888
13,"CC1CCC(C(C)C)C(O)C1 (single isomer, unassigned; (+)) [(+)-menthol]",9.35
14,C=CCc1ccc(O)c(OC)c1 [eugenol],0.975 and 1.38
15,C=C(C)C1CC=C(C)C(=O)C1 (stereo unspecified) [r-carvone],0.857
16,CC(=O)OCC=C(C)CCC=C(C)C [geranyl acetate],1.7
17,CCCCCCOC(=O)CCC [hexyl butyrate],0.867
18,CC(C)CCC(=O)O [4-methylvaleric acid],4.53
19,c1ccc(Oc2ccccc2)cc1 [diphenyl ether],1.03
20,COc1cc(C=O)ccc1O [vanillin],0.811
21,CC(=O)OC(C)(C)C1CC=C(C)CC1 (stereo unspecified) [terpinyl acetate],1.1
22,C=CCc1ccc(OC)c(OC)c1 [eugenol methyl ether],1.14
23,CCCCCCCOC(C)=O [heptyl acetate],1.34
24,O=C1CCCCCCCCCCCCCCO1 [pentadecalactone],1.26
25,CCCCCCCCCCC=O [undecanal],0.807
26,O=CCc1ccccc1 [phenyl acetaldehyde],1.03
27,CCCCCCCC=O [octyl aldehyde],1.15
28,CC(C)CC(=O)O [isovaleric acid],0.888
